The other results are listed elsewhere or left out.

Amino acid sequences for entries named in this document (tags omitted). A change or cut given only in a name is not applied to a line headed by its entry.
UniProt Q5SWH9: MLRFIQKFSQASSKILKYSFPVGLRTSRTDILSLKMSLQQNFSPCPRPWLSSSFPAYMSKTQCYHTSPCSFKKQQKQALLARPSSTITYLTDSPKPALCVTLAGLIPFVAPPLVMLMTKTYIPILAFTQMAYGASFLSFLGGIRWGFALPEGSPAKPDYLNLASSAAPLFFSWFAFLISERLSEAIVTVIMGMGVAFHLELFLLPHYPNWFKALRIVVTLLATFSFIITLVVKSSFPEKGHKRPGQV
UniProt Q53S58: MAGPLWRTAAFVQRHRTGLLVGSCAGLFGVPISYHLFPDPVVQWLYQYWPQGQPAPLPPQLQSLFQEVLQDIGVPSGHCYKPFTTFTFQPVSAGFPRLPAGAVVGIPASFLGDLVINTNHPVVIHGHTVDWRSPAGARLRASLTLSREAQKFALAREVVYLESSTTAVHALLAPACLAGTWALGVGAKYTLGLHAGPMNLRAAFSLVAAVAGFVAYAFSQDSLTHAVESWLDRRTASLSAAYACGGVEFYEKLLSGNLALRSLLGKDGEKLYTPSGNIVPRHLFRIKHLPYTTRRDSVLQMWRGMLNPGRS
UniProt Q96I45: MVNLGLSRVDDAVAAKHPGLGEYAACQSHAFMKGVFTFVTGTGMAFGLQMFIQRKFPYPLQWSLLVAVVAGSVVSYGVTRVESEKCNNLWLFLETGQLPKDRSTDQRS
UniProt Q9BVK8: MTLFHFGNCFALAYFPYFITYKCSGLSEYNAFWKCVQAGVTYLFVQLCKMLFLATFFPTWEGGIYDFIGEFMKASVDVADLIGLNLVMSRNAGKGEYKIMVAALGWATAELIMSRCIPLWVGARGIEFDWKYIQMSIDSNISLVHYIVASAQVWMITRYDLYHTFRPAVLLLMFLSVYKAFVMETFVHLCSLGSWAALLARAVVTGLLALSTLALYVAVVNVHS
UniProt Q8TDI8: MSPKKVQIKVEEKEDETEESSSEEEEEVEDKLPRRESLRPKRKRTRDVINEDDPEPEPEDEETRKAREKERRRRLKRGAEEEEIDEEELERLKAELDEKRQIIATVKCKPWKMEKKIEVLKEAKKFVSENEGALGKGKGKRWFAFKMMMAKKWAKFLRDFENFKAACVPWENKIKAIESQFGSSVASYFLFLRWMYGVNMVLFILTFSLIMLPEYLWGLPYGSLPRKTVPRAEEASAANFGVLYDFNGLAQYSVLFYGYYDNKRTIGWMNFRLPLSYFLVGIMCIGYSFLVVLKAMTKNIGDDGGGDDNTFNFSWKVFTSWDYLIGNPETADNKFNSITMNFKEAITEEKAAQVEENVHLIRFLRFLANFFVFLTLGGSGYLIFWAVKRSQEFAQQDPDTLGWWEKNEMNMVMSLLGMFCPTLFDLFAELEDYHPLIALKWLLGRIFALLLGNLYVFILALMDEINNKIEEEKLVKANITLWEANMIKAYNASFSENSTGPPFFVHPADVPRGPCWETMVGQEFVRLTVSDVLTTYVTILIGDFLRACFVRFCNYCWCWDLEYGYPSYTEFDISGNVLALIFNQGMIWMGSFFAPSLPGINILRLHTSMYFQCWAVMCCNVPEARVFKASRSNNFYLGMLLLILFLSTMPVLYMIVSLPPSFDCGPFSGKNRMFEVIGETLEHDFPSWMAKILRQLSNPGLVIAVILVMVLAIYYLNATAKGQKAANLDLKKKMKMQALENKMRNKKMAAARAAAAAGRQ
UniProt Q9NR96: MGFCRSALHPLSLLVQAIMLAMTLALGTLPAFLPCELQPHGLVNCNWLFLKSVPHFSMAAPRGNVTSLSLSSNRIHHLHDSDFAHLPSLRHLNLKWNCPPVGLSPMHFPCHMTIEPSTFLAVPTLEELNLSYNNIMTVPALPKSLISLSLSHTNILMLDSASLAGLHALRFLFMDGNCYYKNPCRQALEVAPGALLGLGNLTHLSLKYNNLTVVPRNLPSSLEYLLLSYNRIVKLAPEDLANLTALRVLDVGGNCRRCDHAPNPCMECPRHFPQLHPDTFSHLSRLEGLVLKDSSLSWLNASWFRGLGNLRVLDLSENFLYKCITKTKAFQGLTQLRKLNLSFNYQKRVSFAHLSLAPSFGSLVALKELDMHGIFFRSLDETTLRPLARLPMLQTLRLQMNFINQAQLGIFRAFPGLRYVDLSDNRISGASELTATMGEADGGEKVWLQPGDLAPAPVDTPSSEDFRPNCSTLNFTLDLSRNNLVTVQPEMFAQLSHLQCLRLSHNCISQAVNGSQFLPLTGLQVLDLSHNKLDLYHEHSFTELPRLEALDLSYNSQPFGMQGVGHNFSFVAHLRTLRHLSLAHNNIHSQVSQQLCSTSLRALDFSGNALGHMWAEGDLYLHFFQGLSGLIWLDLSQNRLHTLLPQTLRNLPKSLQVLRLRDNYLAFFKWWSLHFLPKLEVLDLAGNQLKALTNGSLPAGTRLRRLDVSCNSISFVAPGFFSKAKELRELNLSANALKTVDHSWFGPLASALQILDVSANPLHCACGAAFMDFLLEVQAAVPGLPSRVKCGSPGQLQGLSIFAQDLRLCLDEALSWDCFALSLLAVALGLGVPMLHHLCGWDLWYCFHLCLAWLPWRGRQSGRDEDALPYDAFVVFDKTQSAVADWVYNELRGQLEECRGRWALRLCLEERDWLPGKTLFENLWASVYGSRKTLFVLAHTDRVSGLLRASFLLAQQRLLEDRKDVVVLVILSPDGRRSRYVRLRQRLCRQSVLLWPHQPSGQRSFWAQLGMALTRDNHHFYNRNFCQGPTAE
UniProt A0PJW6: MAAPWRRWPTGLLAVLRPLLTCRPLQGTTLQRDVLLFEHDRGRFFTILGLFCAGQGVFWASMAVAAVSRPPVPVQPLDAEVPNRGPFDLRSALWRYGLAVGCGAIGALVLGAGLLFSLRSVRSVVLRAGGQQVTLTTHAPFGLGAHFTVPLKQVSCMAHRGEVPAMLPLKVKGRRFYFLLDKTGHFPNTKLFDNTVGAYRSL
UniProt Q8NE00: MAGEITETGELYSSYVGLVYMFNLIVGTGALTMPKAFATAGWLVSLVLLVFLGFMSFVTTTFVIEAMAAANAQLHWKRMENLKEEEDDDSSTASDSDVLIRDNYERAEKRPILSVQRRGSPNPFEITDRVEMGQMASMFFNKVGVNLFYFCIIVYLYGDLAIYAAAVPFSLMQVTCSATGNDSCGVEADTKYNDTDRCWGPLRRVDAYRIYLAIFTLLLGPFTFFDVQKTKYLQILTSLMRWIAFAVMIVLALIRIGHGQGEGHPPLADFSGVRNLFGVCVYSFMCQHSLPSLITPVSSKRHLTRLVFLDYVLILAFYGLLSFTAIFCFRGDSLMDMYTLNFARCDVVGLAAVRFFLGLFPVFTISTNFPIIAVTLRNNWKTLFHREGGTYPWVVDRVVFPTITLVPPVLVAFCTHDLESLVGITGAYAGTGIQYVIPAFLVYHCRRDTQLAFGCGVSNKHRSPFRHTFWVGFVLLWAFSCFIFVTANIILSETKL
UniProt O14763, whole entry, looked up: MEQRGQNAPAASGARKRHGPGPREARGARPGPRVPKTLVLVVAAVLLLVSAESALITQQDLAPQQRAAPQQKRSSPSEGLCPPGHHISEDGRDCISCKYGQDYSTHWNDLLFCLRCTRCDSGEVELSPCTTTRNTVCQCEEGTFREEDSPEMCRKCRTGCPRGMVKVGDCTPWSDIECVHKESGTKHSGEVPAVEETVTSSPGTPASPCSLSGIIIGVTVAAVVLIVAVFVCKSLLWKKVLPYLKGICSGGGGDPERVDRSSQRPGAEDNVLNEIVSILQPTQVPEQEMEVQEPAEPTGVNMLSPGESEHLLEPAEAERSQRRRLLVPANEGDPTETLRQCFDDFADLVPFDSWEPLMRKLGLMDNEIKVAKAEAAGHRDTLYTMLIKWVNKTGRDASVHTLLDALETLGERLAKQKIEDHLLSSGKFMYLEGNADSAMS
UniProt Q8IY95: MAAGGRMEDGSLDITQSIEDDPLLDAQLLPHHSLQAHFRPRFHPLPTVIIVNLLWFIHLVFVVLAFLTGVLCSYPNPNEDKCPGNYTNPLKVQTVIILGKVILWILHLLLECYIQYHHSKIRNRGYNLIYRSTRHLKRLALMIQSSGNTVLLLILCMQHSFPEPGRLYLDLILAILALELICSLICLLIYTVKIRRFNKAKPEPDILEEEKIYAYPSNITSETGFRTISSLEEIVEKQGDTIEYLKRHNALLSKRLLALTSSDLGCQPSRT
UniProt Q8N131: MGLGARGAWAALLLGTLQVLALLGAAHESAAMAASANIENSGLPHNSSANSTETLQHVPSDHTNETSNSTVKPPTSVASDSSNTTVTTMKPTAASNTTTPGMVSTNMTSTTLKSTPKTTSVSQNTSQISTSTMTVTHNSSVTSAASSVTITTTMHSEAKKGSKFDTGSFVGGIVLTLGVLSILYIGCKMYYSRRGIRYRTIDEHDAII
UniProt Q5U3C3: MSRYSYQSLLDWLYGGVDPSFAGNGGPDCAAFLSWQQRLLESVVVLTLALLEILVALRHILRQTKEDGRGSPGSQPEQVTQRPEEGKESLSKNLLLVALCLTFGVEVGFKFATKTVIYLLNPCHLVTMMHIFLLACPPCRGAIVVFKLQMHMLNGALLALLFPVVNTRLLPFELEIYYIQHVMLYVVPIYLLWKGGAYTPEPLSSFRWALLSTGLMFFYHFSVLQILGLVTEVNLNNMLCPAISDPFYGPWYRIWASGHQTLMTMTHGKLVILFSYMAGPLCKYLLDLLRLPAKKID
UniProt Q86UE8, whole entry, looked up: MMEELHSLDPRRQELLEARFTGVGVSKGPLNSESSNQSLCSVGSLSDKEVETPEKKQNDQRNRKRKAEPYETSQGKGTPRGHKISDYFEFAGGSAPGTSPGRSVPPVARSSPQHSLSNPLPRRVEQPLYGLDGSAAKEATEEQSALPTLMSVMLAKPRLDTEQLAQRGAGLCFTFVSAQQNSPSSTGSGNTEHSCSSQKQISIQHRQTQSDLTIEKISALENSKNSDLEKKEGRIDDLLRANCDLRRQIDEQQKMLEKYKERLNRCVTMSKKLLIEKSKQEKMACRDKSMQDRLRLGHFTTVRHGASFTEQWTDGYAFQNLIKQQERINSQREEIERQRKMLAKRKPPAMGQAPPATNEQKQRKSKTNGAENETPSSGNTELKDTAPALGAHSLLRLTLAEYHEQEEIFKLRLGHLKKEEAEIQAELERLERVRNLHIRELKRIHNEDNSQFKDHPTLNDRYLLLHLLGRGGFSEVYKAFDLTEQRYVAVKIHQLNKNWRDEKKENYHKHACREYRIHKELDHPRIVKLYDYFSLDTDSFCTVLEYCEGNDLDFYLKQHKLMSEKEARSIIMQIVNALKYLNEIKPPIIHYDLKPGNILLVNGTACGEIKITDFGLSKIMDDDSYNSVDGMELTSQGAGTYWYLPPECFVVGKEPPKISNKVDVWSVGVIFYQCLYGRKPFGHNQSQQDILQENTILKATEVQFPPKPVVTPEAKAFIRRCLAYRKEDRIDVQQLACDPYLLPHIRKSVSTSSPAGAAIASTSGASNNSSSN
UniProt Q9P2C4: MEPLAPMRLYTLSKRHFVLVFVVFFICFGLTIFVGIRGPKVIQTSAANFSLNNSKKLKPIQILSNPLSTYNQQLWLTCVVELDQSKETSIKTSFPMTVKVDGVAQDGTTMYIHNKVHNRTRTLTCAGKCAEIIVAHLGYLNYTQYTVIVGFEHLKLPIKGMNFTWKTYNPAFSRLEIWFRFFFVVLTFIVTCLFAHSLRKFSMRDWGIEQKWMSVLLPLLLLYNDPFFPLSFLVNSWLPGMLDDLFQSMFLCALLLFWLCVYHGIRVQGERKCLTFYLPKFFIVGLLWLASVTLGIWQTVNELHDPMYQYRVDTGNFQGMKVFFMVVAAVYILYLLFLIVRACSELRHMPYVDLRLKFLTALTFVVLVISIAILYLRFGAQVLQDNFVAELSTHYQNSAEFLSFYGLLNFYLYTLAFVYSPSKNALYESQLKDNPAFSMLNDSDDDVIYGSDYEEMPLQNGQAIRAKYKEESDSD
UniProt Q9NUM4, whole entry, looked up: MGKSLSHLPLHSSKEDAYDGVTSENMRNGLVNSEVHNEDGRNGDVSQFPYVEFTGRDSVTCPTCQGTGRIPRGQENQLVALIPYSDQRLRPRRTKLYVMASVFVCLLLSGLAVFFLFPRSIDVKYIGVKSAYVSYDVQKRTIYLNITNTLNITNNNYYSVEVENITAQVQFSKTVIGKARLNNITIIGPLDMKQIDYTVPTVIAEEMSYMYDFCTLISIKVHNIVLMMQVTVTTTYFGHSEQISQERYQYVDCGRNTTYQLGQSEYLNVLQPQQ
UniProt Q9Y3Q3: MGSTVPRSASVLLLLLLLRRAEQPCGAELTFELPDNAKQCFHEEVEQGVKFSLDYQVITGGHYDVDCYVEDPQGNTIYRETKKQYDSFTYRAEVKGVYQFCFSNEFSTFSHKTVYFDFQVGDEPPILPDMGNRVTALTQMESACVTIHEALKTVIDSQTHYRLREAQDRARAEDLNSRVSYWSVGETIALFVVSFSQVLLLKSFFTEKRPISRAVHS
UniProt Q96IK0: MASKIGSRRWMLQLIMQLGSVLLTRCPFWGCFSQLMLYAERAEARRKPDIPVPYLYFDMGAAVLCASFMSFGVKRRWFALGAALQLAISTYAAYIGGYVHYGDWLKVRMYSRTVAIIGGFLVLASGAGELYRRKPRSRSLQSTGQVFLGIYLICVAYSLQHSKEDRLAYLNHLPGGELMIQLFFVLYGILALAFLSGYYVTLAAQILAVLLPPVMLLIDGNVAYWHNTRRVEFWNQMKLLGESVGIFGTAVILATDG

Compound in the test: C#Cc1cccc(Nc2ncnc3cc(OCCOC)c(OCCOC)cc23)c1 [erlotinib]
Put plainly: log2 fold change, soluble protein after heating vs DMSO (PISA); higher = thermal stabilisation; K562 cells, 10 uM, 30 min; active = over 0.2 and 3.5 SD of the protein, either way, in both replicates (recomputed). The procedure, abridged: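 Soluble protein was quantified by TMTpro 16plex LC-MS/MS after channel sums were equalised. It was obtained as the supernatant after 21,000xg for 90 min from pooled aliquots of K562 cells (2×10^6 cells/mL, 10 μM compound, 30 min) heated for 3 min across 48°C-58°C and extracted in PBS with 0.5% NP-40 at 4°C. Thermal stability values are relative to control samples and come from duplicates. They are given as log2 fold changes.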
Take TMEM134 (UniProt Q9H6X4): the log2 fold change was inactive: 0.119.

For the target TMEM69 (UniProt Q5SWH9), the log2 fold change was inactive: -0.11. For the target TMEM177 (UniProt Q53S58), the log2 fold change is inactive: 0.058. TMEM141 (UniProt Q96I45): the log2 fold change is inactive: 0.072. Consider TMEM63A (UniProt O94886), for which the log2 fold change is inactive: -0.028. As to TMEM120B (UniProt A0PK00), the log2 fold change is inactive: 0.052. Next, TMEM147 (UniProt Q9BVK8): inactive: 0.069; TMC1 (UniProt Q8TDI8): inactive: 0.016; TLR9 isoform 4 (UniProt Q9NR96): inactive: 0.017.

On to TMEM223 (UniProt A0PJW6), for which the log2 fold change was inactive: 0.005. The same measure for TMEM242 (UniProt Q9NWH2): inactive: -0.074. With TNFRSF10A (UniProt O00220), the log2 fold change is inactive: -0.01.

On to TMEM9B (UniProt Q9NQ34), for which the log2 fold change was inactive: 0.062. As for TMEM268 isoform 3 (UniProt Q5VZI3), the log2 fold change is inactive: -0.161.

TMEM87B (UniProt Q96K49): the log2 fold change is inactive: 0.035. The same measure for TMEM161B (UniProt Q8NDZ6): inactive: 0.037; for TMEM14C (UniProt Q9P0S9): inactive: -0.04. Take TM6SF1 (UniProt Q9BZW5): the log2 fold change was inactive: -0.02. Next, TMEM104 (UniProt Q8NE00): inactive: 0.08; TNFAIP3 (UniProt P21580): inactive: 0.02. On to TNFRSF10B (UniProt O14763), for which the log2 fold change is inactive: 0.009. TM7SF3 (UniProt Q9NS93): the log2 fold change was inactive: -0.073. Next, TMC6 (UniProt Q7Z403): inactive: 0.033. Take TMEM192 (UniProt Q8IY95): the log2 fold change was inactive: 0.044. Regarding TMEM41A (UniProt Q96HV5), the log2 fold change was inactive: 0.013. As to TMEM123 (UniProt Q8N131), the log2 fold change is inactive: 0.004. Turning to TMBIM1 (UniProt Q969X1), the log2 fold change was inactive: 0.092.

On to TMEM219 (UniProt Q86XT9), for which the log2 fold change was inactive: -0.029. For TMEM164 (UniProt Q5U3C3), the log2 fold change was inactive: -0.103. The same measure for TLK2 isoform 2 (UniProt Q86UE8): inactive: 0; for TMED8 (UniProt Q6PL24): inactive: -0.006. The same measure for TMEM267 (UniProt Q0VDI3): inactive: -0.054; for TMEM181 (UniProt Q9P2C4): inactive: -0.027. Regarding TMEM106B (UniProt Q9NUM4), the log2 fold change is inactive: 0.007. In the case of TMEM9 (UniProt Q9P0T7), the log2 fold change is inactive: 0.014. With TMED3 (UniProt Q9Y3Q3), the log2 fold change was inactive: -0.08. For the target TMEM189-UBE2V1 (UniProt I3L0A0), the log2 fold change is inactive: -0.014. For TMEM101 (UniProt Q96IK0), the log2 fold change is inactive: -0.046. Next, TMUB1 (UniProt Q9BVT8): inactive: -0.079.
